Results as given in paper PMC2848857, “The Crystal Structure of PPIL1 Bound to Cyclosporine A Suggests a Binding Mode for a Linear Epitope of the SKIP Protein” (PLoS ONE, 2010).
Results are given in words; binding and its absence hold for the method and conditions named. Sequences can lack the tags named with a protein.

Target: GST alone
Assay: condition: 50 µg of purified PPIL1 with 20 µl of beads; pull-down; GST or GST-SKIP43-79 on glutathione-sepharose beads; 50 µg purified PPIL1 with 20 µl beads, 2 h at 4°C; washed with TET-150 (150 mM NaCl, 0.1% Triton X-100) or TET-1000 (1 M NaCl); SDS-PAGE, Coomassie; both purified

binding: no binding
B1: PPIL1 protein (purified, GST tag cleaved) (enzyme, UniProt Q9Y3C6 1-166)
chain: MAAIPPDSWQPPNVYLETSMGIIVLELYWKHAPKTCKNFAELARRGYYNGTKFHRIIKDFMIQGGDPTGTGRGGASIYGKQFEDELHPDLKFTGAGILAMANAGPDTNGSQFFVTLAPTQWLDGKHTIFGRVCQGIGMVNRVGMVETNSQDRPVDDVKIIKAYPSG
